Assay: Baseline fluorescence ratio Ro of probe in absence of analyte
Details: baseline fluorescence ratio of probe

| Molecule | Ro (no fatty acid) | Ro |
| --- | --- | --- |
| 106V, 72A (protein, listed as Rattus norvegicus, PEPTIDE (1)...(131) wild-type rat intestinal fatty acid binding protein) AFDGTWKVDRNENYEKFMEKMGINVVKRKLGAHDNLKLTITQEGNKFTVKESSNFRNIDVVFELGVDFAYSAADGTELTGTWTMEGNKLVGKFKRVDNGKELIAVVEISGNELIQTYTYEGVEAKRIFKKE | 0.261 |  |
| 106A, 72A (protein, listed as Rattus norvegicus, PEPTIDE (1)...(131) wild-type rat intestinal fatty acid binding protein) AFDGTWKVDRNENYEKFMEKMGINVVKRKLGAHDNLKLTITQEGNKFTVKESSNFRNIDVVFELGVDFAYSAADGTELTGTWTMEGNKLVGKFKRVDNGKELIAVAEISGNELIQTYTYEGVEAKRIFKKE | 0.249 |  |
| 106N, 72A (protein, listed as Rattus norvegicus, PEPTIDE (1)...(131) wild-type rat intestinal fatty acid binding protein) AFDGTWKVDRNENYEKFMEKMGINVVKRKLGAHDNLKLTITQEGNKFTVKESSNFRNIDVVFELGVDFAYSAADGTELTGTWTMEGNKLVGKFKRVDNGKELIAVNEISGNELIQTYTYEGVEAKRIFKKE | 0.238 |  |
| 38M 72G 117F (protein, listed as Rattus norvegicus, PEPTIDE (1)...(131) wild-type rat intestinal fatty acid binding protein) AFDGTWKVDRNENYEKFMEKMGINVVKRKLGAHDNLKMTITQEGNKFTVKESSNFRNIDVVFELGVDFAYSGADGTELTGTWTMEGNKLVGKFKRVDNGKELIAVREISGNELIQTFTYEGVEAKRIFKKE |  | 0.241 |
| 106S, 72A (protein, listed as Rattus norvegicus, PEPTIDE (1)...(131) wild-type rat intestinal fatty acid binding protein) AFDGTWKVDRNENYEKFMEKMGINVVKRKLGAHDNLKLTITQEGNKFTVKESSNFRNIDVVFELGVDFAYSAADGTELTGTWTMEGNKLVGKFKRVDNGKELIAVSEISGNELIQTYTYEGVEAKRIFKKE | 0.258 |  |
| 106T, 72A (protein, listed as Rattus norvegicus, PEPTIDE (1)...(131) wild-type rat intestinal fatty acid binding protein) AFDGTWKVDRNENYEKFMEKMGINVVKRKLGAHDNLKLTITQEGNKFTVKESSNFRNIDVVFELGVDFAYSAADGTELTGTWTMEGNKLVGKFKRVDNGKELIAVTEISGNELIQTYTYEGVEAKRIFKKE | 0.228 |  |
| 106L, 72A (protein, listed as Rattus norvegicus, PEPTIDE (1)...(131) wild-type rat intestinal fatty acid binding protein) AFDGTWKVDRNENYEKFMEKMGINVVKRKLGAHDNLKLTITQEGNKFTVKESSNFRNIDVVFELGVDFAYSAADGTELTGTWTMEGNKLVGKFKRVDNGKELIAVLEISGNELIQTYTYEGVEAKRIFKKE | 0.299 |  |
| 14L 18L 73L 117A 72A (protein, listed as Rattus norvegicus, PEPTIDE (1)...(131) wild-type rat intestinal fatty acid binding protein) AFDGTWKVDRNENLEKFLEKMGINVVKRKLGAHDNLKLTITQEGNKFTVKESSNFRNIDVVFELGVDFAYSALDGTELTGTWTMEGNKLVGKFKRVDNGKELIAVREISGNELIQTATYEGVEAKRIFKKE | 0.372 | 0.372 |
| 62N 106F 117A 72A (protein, listed as Rattus norvegicus, PEPTIDE (1)...(131) wild-type rat intestinal fatty acid binding protein) AFDGTWKVDRNENYEKFMEKMGINVVKRKLGAHDNLKLTITQEGNKFTVKESSNFRNIDVVNELGVDFAYSAADGTELTGTWTMEGNKLVGKFKRVDNGKELIAVFEISGNELIQTATYEGVEAKRIFKKE | 0.224 | 0.224 |
| 11Y, 72A (protein, listed as Rattus norvegicus, PEPTIDE (1)...(131) wild-type rat intestinal fatty acid binding protein) AFDGTWKVDRYENYEKFMEKMGINVVKRKLGAHDNLKLTITQEGNKFTVKESSNFRNIDVVFELGVDFAYSAADGTELTGTWTMEGNKLVGKFKRVDNGKELIAVREISGNELIQTYTYEGVEAKRIFKKE | 0.309 | 0.309 |
| 14I 38I 72V (protein, listed as Rattus norvegicus, PEPTIDE (1)...(131) wild-type rat intestinal fatty acid binding protein) AFDGTWKVDRNENIEKFMEKMGINVVKRKLGAHDNLKITITQEGNKFTVKESSNFRNIDVVFELGVDFAYSVADGTELTGTWTMEGNKLVGKFKRVDNGKELIAVREISGNELIQTYTYEGVEAKRIFKKE | 0.205 |  |
| 14I 72A (protein, listed as Rattus norvegicus, PEPTIDE (1)...(131) wild-type rat intestinal fatty acid binding protein) AFDGTWKVDRNENIEKFMEKMGINVVKRKLGAHDNLKLTITQEGNKFTVKESSNFRNIDVVFELGVDFAYSAADGTELTGTWTMEGNKLVGKFKRVDNGKELIAVREISGNELIQTYTYEGVEAKRIFKKE | 0.345 |  |
| 11I, 72A (protein, listed as Rattus norvegicus, PEPTIDE (1)...(131) wild-type rat intestinal fatty acid binding protein) AFDGTWKVDRIENYEKFMEKMGINVVKRKLGAHDNLKLTITQEGNKFTVKESSNFRNIDVVFELGVDFAYSAADGTELTGTWTMEGNKLVGKFKRVDNGKELIAVREISGNELIQTYTYEGVEAKRIFKKE | 0.382 |  |
| 14L 72A (protein, listed as Rattus norvegicus, PEPTIDE (1)...(131) wild-type rat intestinal fatty acid binding protein) AFDGTWKVDRNENLEKFMEKMGINVVKRKLGAHDNLKLTITQEGNKFTVKESSNFRNIDVVFELGVDFAYSAADGTELTGTWTMEGNKLVGKFKRVDNGKELIAVREISGNELIQTYTYEGVEAKRIFKKE | 0.241 | 0.241 |
| 14L 38M 72A 117F (protein, listed as Rattus norvegicus, PEPTIDE (1)...(131) wild-type rat intestinal fatty acid binding protein) AFDGTWKVDRNENLEKFMEKMGINVVKRKLGAHDNLKMTITQEGNKFTVKESSNFRNIDVVFELGVDFAYSAADGTELTGTWTMEGNKLVGKFKRVDNGKELIAVREISGNELIQTFTYEGVEAKRIFKKE | 0.213 |  |
| 72H 73Y 74G (protein, listed as Rattus norvegicus, PEPTIDE (1)...(131) wild-type rat intestinal fatty acid binding protein) AFDGTWKVDRNENYEKFMEKMGINVVKRKLGAHDNLKLTITQEGNKFTVKESSNFRNIDVVFELGVDFAYSHYGGTELTGTWTMEGNKLVGKFKRVDNGKELIAVREISGNELIQTYTYEGVEAKRIFKKE | 0.205 |  |
| 49N, 72A (protein, listed as Rattus norvegicus, PEPTIDE (1)...(131) wild-type rat intestinal fatty acid binding protein) AFDGTWKVDRNENYEKFMEKMGINVVKRKLGAHDNLKLTITQEGNKFTNKESSNFRNIDVVFELGVDFAYSAADGTELTGTWTMEGNKLVGKFKRVDNGKELIAVREISGNELIQTYTYEGVEAKRIFKKE |  | 0.345 |
| 14L 18T 31E 73G 117G 72A (protein, listed as Rattus norvegicus, PEPTIDE (1)...(131) wild-type rat intestinal fatty acid binding protein) AFDGTWKVDRNENLEKFTEKMGINVVKRKLEAHDNLKLTITQEGNKFTVKESSNFRNIDVVFELGVDFAYSAGDGTELTGTWTMEGNKLVGKFKRVDNGKELIAVREISGNELIQTGTYEGVEAKRIFKKE |  | 0.395 |
| 72T 73Q 74S (protein, listed as Rattus norvegicus, PEPTIDE (1)...(131) wild-type rat intestinal fatty acid binding protein) AFDGTWKVDRNENYEKFMEKMGINVVKRKLGAHDNLKLTITQEGNKFTVKESSNFRNIDVVFELGVDFAYSTQSGTELTGTWTMEGNKLVGKFKRVDNGKELIAVREISGNELIQTYTYEGVEAKRIFKKE | 0.283 |  |
| 72G 74F (protein, listed as Rattus norvegicus, PEPTIDE (1)...(131) wild-type rat intestinal fatty acid binding protein) AFDGTWKVDRNENYEKFMEKMGINVVKRKLGAHDNLKLTITQEGNKFTVKESSNFRNIDVVFELGVDFAYSGAFGTELTGTWTMEGNKLVGKFKRVDNGKELIAVREISGNELIQTYTYEGVEAKRIFKKE | 0.467 |  |
| 73N 72A 74F (protein, listed as Rattus norvegicus, PEPTIDE (1)...(131) wild-type rat intestinal fatty acid binding protein) AFDGTWKVDRNENYEKFMEKMGINVVKRKLGAHDNLKLTITQEGNKFTVKESSNFRNIDVVFELGVDFAYSANFGTELTGTWTMEGNKLVGKFKRVDNGKELIAVREISGNELIQTYTYEGVEAKRIFKKE | 0.448 |  |
| 18I 31L 73L 72A (protein, listed as Rattus norvegicus, PEPTIDE (1)...(131) wild-type rat intestinal fatty acid binding protein) AFDGTWKVDRNENYEKFIEKMGINVVKRKLLAHDNLKLTITQEGNKFTVKESSNFRNIDVVFELGVDFAYSALDGTELTGTWTMEGNKLVGKFKRVDNGKELIAVREISGNELIQTYTYEGVEAKRIFKKE | 0.380 |  |
| 14I 72G 117V (protein, listed as Rattus norvegicus, PEPTIDE (1)...(131) wild-type rat intestinal fatty acid binding protein) AFDGTWKVDRNENIEKFMEKMGINVVKRKLGAHDNLKLTITQEGNKFTVKESSNFRNIDVVFELGVDFAYSGADGTELTGTWTMEGNKLVGKFKRVDNGKELIAVREISGNELIQTVTYEGVEAKRIFKKE | 0.312 | 0.312 |

Reference: patent US20060257938A1, “Method of screening for drugs that block ligand binding to a lipid binding protein” (priority 2005, published 2006)
